Data set [1] addresses T1, Glycoprotein VI on platelets (Homo sapiens) (UniProt Q9HCN6).
T1 sequence (limits assumed): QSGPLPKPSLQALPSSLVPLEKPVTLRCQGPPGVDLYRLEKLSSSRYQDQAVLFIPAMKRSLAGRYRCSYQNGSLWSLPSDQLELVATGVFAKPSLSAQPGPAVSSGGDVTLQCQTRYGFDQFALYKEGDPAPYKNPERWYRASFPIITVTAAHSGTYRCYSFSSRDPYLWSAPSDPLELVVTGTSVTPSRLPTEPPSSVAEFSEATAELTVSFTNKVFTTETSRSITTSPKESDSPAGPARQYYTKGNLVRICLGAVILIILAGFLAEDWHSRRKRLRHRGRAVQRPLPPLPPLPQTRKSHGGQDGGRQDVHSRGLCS
The data set is described as follows: activity in cells. The conditions noted are these: protein on the cell surface; for functional effect of the aptamer: dose not given here.

Data set [2] deals with T2, Glycoprotein VI extracellular domain (Gln21-Lys267) (Homo sapiens) (UniProt Q9HCN6).
T2 sequence: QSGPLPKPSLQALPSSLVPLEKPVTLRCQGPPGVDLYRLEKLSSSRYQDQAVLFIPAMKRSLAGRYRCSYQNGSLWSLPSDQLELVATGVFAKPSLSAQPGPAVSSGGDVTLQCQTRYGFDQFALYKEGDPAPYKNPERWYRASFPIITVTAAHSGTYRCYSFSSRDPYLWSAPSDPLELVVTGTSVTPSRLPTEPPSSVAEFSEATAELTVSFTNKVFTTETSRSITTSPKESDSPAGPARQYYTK
Put plainly: filter binding. The conditions noted are these: purified recombinant protein, protein details: C-terminal His6, R&D Systems 3627-GP, label: 5'-32P.

Where [3] appears, read: 2'-F C and U, 2'-OH purines, no effect on collagen-induced aggregation, washed platelets, variant of EF-2 T2 (RB428).
[4] abbreviates: 2'-F C and U, 2'-OH A and G, binding not detected, variant of EF-2 T2 (RB428).
The mark [5] stands for this setting: 2'-F C and U, 2'-OH purines, no effect on collagen-induced aggregation, washed platelets, variant of EF-3 T2 (RB430).
Setting [6] is: 2'-F C and U, 2'-OH A and G, binding not detected, variant of EF-3 T2 (RB430).
Where [7] appears, read: 2'-F C and U, 2'-OH A and G, hexaethylene glycol spacer in place of Loop 2, 3' idT, no binding, variant of RB466.
[8] abbreviates: 2'-F C and U, 2'-OH purines, blocked collagen-induced aggregation, washed platelets.

No signal at the amounts used counts as a negative. Tags and fusion partners may be left off the protein sequences shown. For part of these data: A weaker result is weaker than the reference pair of the same experiment. Construct, isoform or probe ends are uncertain for at least one entry. For part of these data: At least one result comes from cells or an extract, where the contact may be indirect.

The record followed here is patent US20100311820.

The sequence GGAGGACGGCGCGCCUGGCAUAAGCCUCC [RB540] came in with an IC50 in data set [1] (2'-OH G1, 2'-deoxy A6,G8,G9, 2'-F C7,C14,C15,U16,C19,U21, all others 2'-OMe, hexaethylene glycol spacer between G11 and C12, 3' idT, collagen-induced washed platelet aggregation, variant of RB538) of 44 nM.
On to GGGAGGACGGCGCGCCUGGCAUAAGCCUCCC [RB525], for which, in data set [2] (RB524 with 2'-deoxy A7, 2'-OMe G9, variant of RB524), the binding result is reported as “binds more weakly”.
As for “GGGAGGACGAUGCGGUGCCAAAACACCCGUCAAGCAUAAGCCUCCU [EF-2 T2 mut3]”, the “functional effect of the aptamer” value in data set [1] (setting [3]) is “not active”. In addition, in data set [2] (setting [4]), the binding result was “no binding”.
For GGAGGACGGCGCGCCUGGCAUAAGCCUCC [RB566], the IC50 in data set [1] (RB540 with PS G8-G9 and G9-C10, collagen-induced washed platelet aggregation, CRP-XL IC50 38 nM, variant of RB540) is 20 nM; in data set [1] (rGmGmAmGmGAfCG(s)G(s)mCmG(6GLY)mCmGfCfCfUmGmGfCmAfUmAmAmGmCmCmUmCmCiT, CRP-XL-induced aggregation, washed platelets) it was 38 nM. The “functional effect of the aptamer” value in data set [1] (rGmGmAmGmGAfCG(s)G(s)mCmG(6GLY)mCmGfCfCfUmGmGfCmAfUmAmAmGmCmCmUmCmCiT, greatly reduced platelet adhesion and aggregation on collagen under flow, whole blood) is on record as “active”.
As to “GGGAGGACGGCGCUAACGCCUGGCAUAAGCCUCCC [RB461]”, in data set [2] (RB448 with 2'-OMe U21,G22, no binding, variant of RB448), the binding result is listed as “no binding”.
Consider GGGAGGACGGCGCGCCUGGCAUAAGCCUCCC [RB466], for which the binding result in data set [2] (2'-F C and U, 2'-OH A and G, hexaethylene glycol spacer between G12 and C13 replacing Loop 2, 3' idT, variant of RB448) is reported as “binds”.
For the sequence GGGAGGACGGCGCGCCUUGCAUAAGCCUCCC [RB480], the binding result in data set [2] (2'-F C and U, 2'-OH A and G, hexaethylene glycol spacer in place of Loop 2, 3' idT, variant of RB466) was “binds”.
In the case of GGGAGGACGGCGCGCCUGGCAUAAGCCUCCC [RB522], the binding result in data set [2] (RB520 with 2'-OMe A7, variant of RB520) was “binds more weakly”.
For the sequence “GGGAGGACGGCGCUAACGCCUGGCAUAAGCCUCCC [RB459]”, the binding result in data set [2] (RB448 with 2'-OMe U21, no binding, variant of RB448) was “no binding”.
In the case of “GGGAGGACGAUGCGGAUCACACCGCGUCAAGCGUAAGCCUCCU [EF-3 T2 mut3]”, in data set [1] (setting [5]), the “functional effect of the aptamer” value is listed as “not active”. In data set [2] (setting [6]), the binding result was “no binding”.
On to “GGGAGGACGGCGCUAACGCCAAGCAUAAGCCUCCC [RB469]”, for which the “functional effect of the aptamer” value in data set [1] (2'-F C and U, 2'-OH A and G, 5' 6-FAM, 3' idT, dead, compound assayed functionally, variant of RB448) is “not active”.
In the case of GGGAGGACGGCGCGCCUGGCAUAAGCCUCCC [RB498], the binding result in data set [2] (RB490 with 2'-OMe C16, variant of RB490) is on record as “binds more weakly”.
On to GGGAGGUCGGCGCGCCUGGCAUAAGCCUCCC [RB471], for which, in data set [1] (rGrGrGrArGrGfUfCrGrGfCrG(6GLY)fCrGfCfCfUrGrGfCrAfUrArArGfCfCfUfCfCfCiT, inactive control, platelet response on collagen under flow comparable to buffer, whole blood), the “functional effect of the aptamer” value is “not active”. Further, the binding result in data set [2] (2'-F C and U, 2'-OH A and G, hexaethylene glycol spacer in place of Loop 2, 3' idT, no binding, inactive control in whole blood flow assay, variant of …) was “no binding”.
Consider “GGGAGGACGAUGCGGAUCACACCGCGUCUAGCGUAAGCCUCCU [EF-3 T2 mut6]”, for which the binding result in data set [2] (2'-F C and U, 2'-OH A and G, variant of EF-3 T2 (RB430)) is recorded as “binds more weakly”.
On to “GGGAGGACGAUGCGGAUCACACCGCGUCUUGCGUGGGCCUCCU [EF-3 T2 mut5]”, for which, in data set [1] (setting [5]), the “functional effect of the aptamer” value was “not active”. Besides, the binding result in data set [2] (setting [6]) was “no binding”.
With GGGAGGACGGCGCGCCUGGCAUAAGCCUCCC [RB490], the IC50 in data set [1] (2'-OMe G2,G3,A4,G5,C11,G12,C13,G14,G19,C26,C27,U28,C29,C30,C31, 2'-F C8,C15,C16,U17,C20,U22, rest 2'-OH, hexaethylene glycol spacer between G12 and C13, 3' idT, collagen-induced washed platelet aggregation, CRP-XL IC50 79 nM, variant of RB466) was found to be 23 nM; in data set [1] (rGmGmGmAmGrGrAfCrGrGmCmG(6GLY)mCmGfCfCfUrGmGfCrAfUrArArGmCmCmUmCmCmCiT, CRP-XL-induced aggregation, washed platelets) it was 79 nM. In data set [2] (2'-OMe G2,G3,A4,G5,C11,G12,C13,G14,G19,C26,C27,U28,C29,C30,C31, 2'-F C8,C15,C16,U17,C20,U22, rest 2'-OH, hexaethylene glycol spacer between G12 and C13, 3' idT, buffer F, 37 C, variant of RB466), the binding result is given as “binds”.
In the case of “GGGAGGACGAUGCGGAUCACACCGCGUCAUGCGUAAGCCUCCU [EF-3 T2 mut7]”, in data set [2] (setting [6]), the binding result was “no binding”.
Regarding GGGAGGACGGCGCGCCUGGCAUAAGCCUCCC [RB501], in data set [2] (RB490 with 2'-OMe C20, no binding, variant of RB490), the binding result was “no binding”.
For GGGAGGAGGGCGCGCCUGGCAUAAGCCUCCC [RB472], the binding result in data set [2] (setting [7]) is on record as “no binding”.
For the sequence GGAGGACGGCGCGCCUGGCAUAAGCCUCC [RB570], in data set [1] ((PEG40KGL2-NOF)(C6L)mGmGmAmGmGAfCGGmCmG(6GLY)mCmGfCfCfUmGmGfCmAfUmAmAmGmCmCmUmCmCiT, dose-dependent inhibition of collagen- and CRP-induced aggregation, washed platelets), the “functional effect of the aptamer” value is recorded as “active”.
On to “GGGAGGACGAUGCGGUGCCAAAACACCCGUCUUGCAUAAGCCUCCU [EF-2 T2 (RB428)]”, for which the “functional effect of the aptamer” value in data set [1] (setting [8]) is given as “active”.
As to “GGGAGGACGAUGCGGUGCCAAAACACCCGUCUUGCAUUUGCCUCCU [EF-2 T2 mut4]”, the “functional effect of the aptamer” value in data set [1] (setting [3]) is listed as “not active”. Moreover, in data set [2] (setting [4]), the binding result is given as “no binding”.
Take “GGGAGGACGAUGCGGAUCACACCGCGUCUUGCGUUUGCCUCCU [EF-3 T2 mut4]”: the “functional effect of the aptamer” value in data set [1] (setting [5]) is “not active”. Moreover, the binding result in data set [2] (setting [6]) is listed as “no binding”.
Turning to GGAGGACGGCGCGCCUGGCAUAAGCCUCC [RB549], the IC50 in data set [1] (RB540 with PS G8-G9, collagen-induced washed platelet aggregation, CRP-XL IC50 98 nM, variant of RB540) stood at 25 nM; in data set [1] (rGmGmAmGmGAfCG(s)GmCmG(6GLY)mCmGfCfCfUmGmGfCmAfUmAmAmGmCmCmUmCmCiT, CRP-XL-induced aggregation, washed platelets), 98 nM.
For the sequence GGAGGACGGCGCGCCUGGCAUAAGCCUCC [RB569], the “functional effect of the aptamer” value in data set [1] ((PEG40KGL2-NOF)(C6L)mGmGmAmGmGAfCG(s)GmCmG(6GLY)mCmGfCfCfUmGmGfCmAfUmAmAmGmCmCmUmCmCiT, dose-dependent inhibition of collagen- and CRP-induced aggregation, washed platelets) is given as “active”.
Consider “GGGAGGACGAUGCGGUGCCAAAACACCCGUCUUGCAUGGGCCUCCU [EF-2 T2 mut5]”, for which the “functional effect of the aptamer” value in data set [1] (setting [3]) is recorded as “not active”. In addition, the binding result in data set [2] (setting [4]) is given as “no binding”.
As to GGGAGCACGGCGCGCCUGGCAUAAGCCUCCC [RB470], the binding result in data set [2] (setting [7]) is listed as “no binding”.
For GGGAGGACGGCGCGCCUGGCAUAAGCCUCCC [RB478], the “functional effect of the aptamer” value in data set [1] (RB466 with 5' 6-FAM, rated +++, compound assayed functionally, variant of RB466) was “active”.
Consider “GGGAGGACGAUGCGGAUCACACCGCGUCUUGCGUAAGCCUCCU [EF-3 T2 (RB430)]”, for which the “functional effect of the aptamer” value in data set [1] (setting [8]) is on record as “active”.
Take “GGGAGGACGGCGCUAACGCCUGGCAUAAGCCUCCC [RB463]”: in data set [2] (RB448 with 2'-OMe C24,G29, no binding, variant of RB448), the binding result is “no binding”.
